Data on 19 molecules can be found in US20160108128A1 (CANCER RESEARCH TECHNOLOGY, published 2016).

By UniProt entry, the sequences of proteins in these tests, tags left out. Residues count along the entry.
UniProt P78504, residues 34-1218: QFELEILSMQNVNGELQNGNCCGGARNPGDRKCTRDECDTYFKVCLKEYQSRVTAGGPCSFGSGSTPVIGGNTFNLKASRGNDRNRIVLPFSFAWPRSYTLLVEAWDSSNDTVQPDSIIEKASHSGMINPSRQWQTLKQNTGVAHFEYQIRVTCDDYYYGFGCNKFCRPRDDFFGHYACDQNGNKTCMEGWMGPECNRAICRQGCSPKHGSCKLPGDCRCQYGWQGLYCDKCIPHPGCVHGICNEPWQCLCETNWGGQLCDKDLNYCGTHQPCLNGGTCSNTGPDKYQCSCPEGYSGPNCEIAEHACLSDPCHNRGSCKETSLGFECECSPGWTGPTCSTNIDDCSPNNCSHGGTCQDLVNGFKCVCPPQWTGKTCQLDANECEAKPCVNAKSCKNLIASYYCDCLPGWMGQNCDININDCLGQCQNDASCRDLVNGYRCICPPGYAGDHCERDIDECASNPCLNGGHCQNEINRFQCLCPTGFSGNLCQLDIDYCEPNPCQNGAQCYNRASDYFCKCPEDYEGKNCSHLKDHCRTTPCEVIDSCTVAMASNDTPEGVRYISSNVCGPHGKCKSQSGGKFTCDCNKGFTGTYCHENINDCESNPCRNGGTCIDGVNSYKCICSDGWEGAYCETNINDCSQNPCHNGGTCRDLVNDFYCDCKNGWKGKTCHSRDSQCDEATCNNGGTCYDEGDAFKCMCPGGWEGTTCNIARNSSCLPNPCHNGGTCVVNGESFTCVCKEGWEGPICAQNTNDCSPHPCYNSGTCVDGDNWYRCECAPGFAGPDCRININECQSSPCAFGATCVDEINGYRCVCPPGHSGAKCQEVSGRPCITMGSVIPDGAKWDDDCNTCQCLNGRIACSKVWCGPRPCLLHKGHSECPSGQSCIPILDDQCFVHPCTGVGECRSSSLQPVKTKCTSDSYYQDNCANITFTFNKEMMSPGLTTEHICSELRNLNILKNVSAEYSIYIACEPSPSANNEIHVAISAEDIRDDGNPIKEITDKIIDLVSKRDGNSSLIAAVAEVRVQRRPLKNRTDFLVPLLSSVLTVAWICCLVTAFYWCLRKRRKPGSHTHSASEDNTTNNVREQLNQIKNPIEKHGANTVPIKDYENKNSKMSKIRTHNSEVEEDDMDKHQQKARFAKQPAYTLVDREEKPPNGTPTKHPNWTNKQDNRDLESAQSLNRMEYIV

Assay [1] has as its target T1, human Jagged 1, full length, on cells (human, UniProt P78504 34-1218).
T1 construct: whole, on cells; the cell is named under assay; also called hJ1; J1
As to the kind of experiment: FACS, 293-JAG1 cells.

For assay [2], the target named is T1, human Jagged 1, full length, on cells. As to the kind of experiment: FACS, 293-JAG1 cells, anti-human-APC.

Results are given in words; binding and its absence hold for the method and conditions named. Some results given as binding are weak or reduced against the parent protein; the word gives no strength.

B1: J1-183D variant 10 (antibody, human IgG1, V domains shown)
VH: QVQLVQSGAELKKPGASVKVSCKVSGYAFTDYAIHWIRQAPGQGLEWMGIINTYYGDSKYAQKFQGRVTMTVDTSTSTAYMELSSLRSEDTAVYYCARGYDGFAYWGQGTLVTVSS
VL: DIQMTQSPSSLSASVGDRVTITCRTSENIYSYLTWYQQKPGKAPKLLIYNAKILDSGVPSRFSGSGSGTDFTLTISSLQPEDFATYYCQHHYDIPWTFGGGTKLEIKR
notes: human IgG1; also called J1-183DV10; V10
Regarding B1, the binding entry in assay [1] and in assay [2] was “binds” each time.

B2: J1-183D variant 2 (antibody, human IgG1, V domains shown)
VH: QVQLVQSGAELKKPGASVKVSCKVSGYAFTDYAIHWIRQAPGQGLEWMGIINTYYGDSKYAQKFQGRVTMTVDTSTSTAYMELSSLRSEDTAVYYCARGYDGFAYWGQGTLVTVSS
VL: DIQMTQSPSSLSASVGDRVTITCRTSENIYSYLTWYQQKPGKAPKLLVYNAKILAAGVPSRFSGSGSGTDFTLTISSLQPEDFATYYCQHHYDIPWTFGGGTKLEIKR
notes: human IgG1; also called J1-183DV2; V2
Turning to B2, the binding result in assay [1] and in assay [2] was “binds” each time.

B3: J1-183D variant 1 (antibody, human IgG1, V domains shown)
VH: QVQLVQSGAELKKPGASVKVSCKVSGYAFTDYAIHWIRQAPGQGLEWMGIINTYYGDSKYNQKFKDRVTMTVDKSTSTAYMELSSLRSEDTAVYYCARGYDGFAYWGQGTLVTVSS
VL: DIQMTQSPSSLSASVGDRVTITCRTSENIYSYLTWYQQKPGKAPKLLVYNAKILAAGVPSRFSGSGSGTDFTLTISSLQPEDFATYYCQHHYDIPWTFGGGTKLEIKR
notes: human IgG1; also called J1-183DV1; V1
With B3, the binding result in assay [1] and in assay [2] was “binds” each time.

B4: J1-183D variant 5 (antibody, human IgG1, V domains shown)
VH: QVQLVQSGAELKKPGASVKVSCKVSGYAFTDYAIHWIRQAPGQGLEWMGIINTYYGDSKYNQKFKDRVTMTVDKSTSTAYMELSSLRSEDTAVYYCARGYDGFAYWGQGTLVTVSS
VL: DIQMTQSPSSLSASVGDRVTITCRTSENIYSYLTWYQQKPGKAPKLLIYNAKTLASGVPSRFSGSGSGTDFTLTISSLQPEDFATYYCQHHYDIPWTFGGGTKLEIKR
notes: human IgG1; also called J1-183DV5; V5
With B4, the binding result in assay [1] and in assay [2] was “binds” each time.

B5: J1-183D variant 3 (antibody, human IgG1, V domains shown)
VH: QVQLVQSGAELKKPGASVKVSCKVSGYAFTDYAIHWVRQAPGQGLEWMGIINTYYGDSKYAQKFQGRVTMTVDTSTSTAYMELSSLRSEDTAVYYCARGYDGFAYWGQGTLVTVSS
VL: DIQMTQSPSSLSASVGDRVTITCRTSENIYSYLTWYQQKPGKAPKLLVYNAKILAAGVPSRFSGSGSGTDFTLTISSLQPEDFATYYCQHHYDIPWTFGGGTKLEIKR
notes: human IgG1; also called J1-183DV3; V3
For the molecule B5, the binding result in assay [1] and in assay [2] was “binds” each time.

B6: J1-183D variant 4 (antibody, human IgG1, V domains shown)
VH: QVQLVQSGAEVKKPGASVKVSCKASGYTFTDYAIHWVRQAPGQGLEWMGIINTYYGDSKYAQKFQGRVTMTVDTSTSTAYMELSSLRSEDTAVYYCARGYDGFAYWGQGTLVTVSS
VL: DIQMTQSPSSLSASVGDRVTITCRTSENIYSYLTWYQQKPGKAPKLLVYNAKILAAGVPSRFSGSGSGTDFTLTISSLQPEDFATYYCQHHYDIPWTFGGGTKLEIKR
notes: human IgG1; also called J1-183DV4; V4
Regarding B6, the binding result in assay [1] and in assay [2] was “binds” throughout.

B7: J1-65D chimeric (antibody, human IgG1, V domains shown)
VH: QVQLQQPGAELVRPGASVKLSCKALGYTFTDYEMHWVKETPVHGLEWIGAIQPGGGGTAYNQKFKGKATLTADKSSSTAYMELSSLTSEDSAVYYCTRRGYDDYPFAYWGQGTLVTVSS
VL: DIQLTQSPASLSASVGETVTITCRASGNIHNYLAWYQQKQGKSPQLLVYNAKTLADDIPSRFSGSGSGTQYSLKINSLQPEDFGSYYCQHFWSAPWTFGGGTKLEIK
notes: chimeric antibody with unaltered CDRs; vectors encode human IgG1
B7: the binding entry in assay [1] and in assay [2] was “binds” throughout.

B8: J1-65D variant 6 (antibody, human IgG1, V domains shown)
VH: QVQLVQSGAELKKPGSSVKVSCKASGYTFTDYEMHWVRQAPGQGLEWMGAIQPGGGGTAYAQKFKGRVTLTADKSTSTAYMELSSLRSEDTAVYYCTRRGYDDYPFAYWGQGTLVTVSS
VL: DIQMTQSPSSLSASVGDRVTITCRASGNIHNYLAWYQQKPGKAPKLLIYNAKTLADAVPSRFSGSGSGTDYTLTISSLQPEDFATYYCQHFWSAPWTFGGGTKLEIKR
notes: human IgG1; also called J1-65DV6; V6
For B8, the binding result in assay [1] and in assay [2] was “binds” in each case.

B9: J1-65D variant 9 (antibody, human IgG1, V domains shown)
VH: QVQLVQSGAELKKPGSSVKVSCKASGYTFTDYEMHWVRQAPGQGLEWMGAIQPGGGGTAYNQKFKGRVTLTADKSTSTAYMELSSLRSEDTAVYYCTRRGYDDYPFAYWGQGTLVTVSS
VL: DIQMTQSPSSLSASVGDRVTITCRASGNIHNYLAWYQQKPGKAPKLLIYNAKTLADAVPSRFSGSGSGTDYTLTISSLQPEDFATYYCQHFWSAPWTFGQGTKLEIKR
notes: human IgG1; also called J1-65DV9; V9
As to B9, the binding entry in assay [1] and in assay [2] was “binds” throughout.

B10: J1-65D variant 1 (antibody, human IgG1, V domains shown)
VH: QVQLVQSGAELKKPGSSVKVSCKASGYTFTDYEMHWVRQAPGQGLEWMGAIQPGGGGTAYNQKFKGRVTLTADKSTSTAYMELSSLRSEDTAVYYCTRRGYDDYPFAYWGQGTLVTVSS
VL: DIQMTQSPSSLSASVGDRVTITCRASGNIHNYLAWYQQKPGKAPKLLIYNAKTLADDVPSRFSGSGSGTDYTLTISSLQPEDFATYYCQHFWSAPWTFGGGTKLEIKR
notes: human IgG1; also called J1-65DV1; V1
As for B10, the binding result in assay [1] and in assay [2] was “binds” each time.

B11: J1-65D variant 12 (antibody, human IgG1, V domains shown)
VH: QVQLVQSGAEVKKPGSSVKVSCKASGYTFTDYEMHWVRQAPGQGLEWMGAIQPGGGGTAYAQKFQGRVTITADKSTSTAYMELSSLRSEDTAVYYCTRRGYDDYPFAYWGQGTLVTVSS
VL: DIQMTQSPSSLSASVGDRVTITCRASGNIHNYLAWYQQKPGKAPKLLIYNAKTLADAVPSRFSGSGSGTDYTLTISSLQPEDFATYYCQHFWSAPWTFGQGTKLEIKR
notes: human IgG1; also called J1-65DV12; V12
For the molecule B11, the binding result in assay [1] and in assay [2] was “binds” throughout.

B12: J1-65D variant 4 (antibody, human IgG1, V domains shown)
VH: QVQLVQSGAEVKKPGSSVKVSCKASGYTFTDYEMHWVRQAPGQGLEWMGAIQPGGGGTAYAQKFQGRVTITADKSTSTAYMELSSLRSEDTAVYYCTRRGYDDYPFAYWGQGTLVTVSS
VL: DIQMTQSPSSLSASVGDRVTITCRASGNIHNYLAWYQQKPGKAPKLLIYNAKTLADDVPSRFSGSGSGTDYTLTISSLQPEDFATYYCQHFWSAPWTFGGGTKLEIKR
notes: human IgG1; also called J1-65DV4; V4
On to B12, for which the binding result in assay [1] and in assay [2] was “binds” throughout.

B13: J1-65D variant 2 (antibody, human IgG1, V domains shown)
VH: QVQLVQSGAELKKPGSSVKVSCKASGYTFTDYEMHWVRQAPGQGLEWMGAIQPGGGGTAYAQKFKGRVTLTADKSTSTAYMELSSLRSEDTAVYYCTRRGYDDYPFAYWGQGTLVTVSS
VL: DIQMTQSPSSLSASVGDRVTITCRASGNIHNYLAWYQQKPGKAPKLLIYNAKTLADDVPSRFSGSGSGTDYTLTISSLQPEDFATYYCQHFWSAPWTFGGGTKLEIKR
notes: human IgG1; also called J1-65DV2; V2
Turning to B13, the binding entry in assay [1] and in assay [2] was “binds” throughout.

B14: J1-65D variant 10 (antibody, human IgG1, V domains shown)
VH: QVQLVQSGAELKKPGSSVKVSCKASGYTFTDYEMHWVRQAPGQGLEWMGAIQPGGGGTAYAQKFKGRVTLTADKSTSTAYMELSSLRSEDTAVYYCTRRGYDDYPFAYWGQGTLVTVSS
VL: DIQMTQSPSSLSASVGDRVTITCRASGNIHNYLAWYQQKPGKAPKLLIYNAKTLADAVPSRFSGSGSGTDYTLTISSLQPEDFATYYCQHFWSAPWTFGQGTKLEIKR
notes: human IgG1; also called J1-65DV10; V10
Take B14: the binding entry in assay [1] and in assay [2] was “binds” in each case.

B15: J1-65D variant 8 (antibody, human IgG1, V domains shown)
VH: QVQLVQSGAEVKKPGSSVKVSCKASGYTFTDYEMHWVRQAPGQGLEWMGAIQPGGGGTAYAQKFQGRVTITADKSTSTAYMELSSLRSEDTAVYYCTRRGYDDYPFAYWGQGTLVTVSS
VL: DIQMTQSPSSLSASVGDRVTITCRASGNIHNYLAWYQQKPGKAPKLLIYNAKTLADAVPSRFSGSGSGTDYTLTISSLQPEDFATYYCQHFWSAPWTFGGGTKLEIKR
notes: human IgG1; also called J1-65DV8; V8
For the molecule B15, the binding result in assay [1] and in assay [2] was “binds” each time.

B16: J1-65D variant 5 (antibody, human IgG1, V domains shown)
VH: QVQLVQSGAELKKPGSSVKVSCKASGYTFTDYEMHWVRQAPGQGLEWMGAIQPGGGGTAYNQKFKGRVTLTADKSTSTAYMELSSLRSEDTAVYYCTRRGYDDYPFAYWGQGTLVTVSS
VL: DIQMTQSPSSLSASVGDRVTITCRASGNIHNYLAWYQQKPGKAPKLLIYNAKTLADAVPSRFSGSGSGTDYTLTISSLQPEDFATYYCQHFWSAPWTFGGGTKLEIKR
notes: human IgG1; also called J1-65DV5; V5
Consider B16, for which the binding result in assay [1] and in assay [2] was “binds” each time.

B17: J1-65D variant 7 (antibody, human IgG1, V domains shown)
VH: QVQLVQSGAEVKKPGSSVKVSCKASGYTFTDYEMHWVRQAPGQGLEWMGAIQPGGGGTAYAQKFQGRVTLTADKSTSTAYMELSSLRSEDTAVYYCTRRGYDDYPFAYWGQGTLVTVSS
VL: DIQMTQSPSSLSASVGDRVTITCRASGNIHNYLAWYQQKPGKAPKLLIYNAKTLADAVPSRFSGSGSGTDYTLTISSLQPEDFATYYCQHFWSAPWTFGGGTKLEIKR
notes: human IgG1; also called J1-65DV7; V7
Consider B17, for which the binding result in assay [1] and in assay [2] was “binds” in each case.

B18: J1-65D variant 3 (antibody, human IgG1, V domains shown)
VH: QVQLVQSGAEVKKPGSSVKVSCKASGYTFTDYEMHWVRQAPGQGLEWMGAIQPGGGGTAYAQKFQGRVTLTADKSTSTAYMELSSLRSEDTAVYYCTRRGYDDYPFAYWGQGTLVTVSS
VL: DIQMTQSPSSLSASVGDRVTITCRASGNIHNYLAWYQQKPGKAPKLLIYNAKTLADDVPSRFSGSGSGTDYTLTISSLQPEDFATYYCQHFWSAPWTFGGGTKLEIKR
notes: human IgG1; also called J1-65DV3; V3
On to B18, for which the binding result in assay [1] and in assay [2] was “binds” each time.

B19: J1-65D variant 11 (antibody, human IgG1, V domains shown)
VH: QVQLVQSGAEVKKPGSSVKVSCKASGYTFTDYEMHWVRQAPGQGLEWMGAIQPGGGGTAYAQKFQGRVTLTADKSTSTAYMELSSLRSEDTAVYYCTRRGYDDYPFAYWGQGTLVTVSS
VL: DIQMTQSPSSLSASVGDRVTITCRASGNIHNYLAWYQQKPGKAPKLLIYNAKTLADAVPSRFSGSGSGTDYTLTISSLQPEDFATYYCQHFWSAPWTFGQGTKLEIKR
notes: human IgG1; also called J1-65DV11; V11
For the molecule B19, the binding result in assay [1] and in assay [2] was “binds” each time.
